{
  "source": "patent US10487093B2",
  "about": "“Heterocyclic compounds, in particular 2-oxo-4,4,5,5,6,6,7,7-octahydrobenzoxazole derivatives, and their use as antibacterial compounds” (priority 2016, dated 2019)",
  "note": "Some entries share one result that the patent states for a list of compounds.",
  "data": [
    {"test_system": "Gram-negative and Gram-positive bacterial strains", "assay_type": "cell-based", "settings": "S. aureus and S. pneumoniae", "values": [
      {"smiles": "O=C1COc2ccc(N3C(=O)O[C@H]4C[C@@H](NCCn5c(=O)ccc6nccnc65)CC[C@@H]43)nc2N1", "note": "[Compound 100, (3aS,6S,7aS)-3-{3-oxo-2H,3H,4H-pyrido[3,2-b][1,4]oxazin-6-yl}-6-[(2-{6-oxo-5H,6H-pyrido[2,3-b]pyrazin-5-yl}ethyl)amino]-octahydro-1,3-benzoxazol-2-one]", "activity against the Gram-positive strains S. aureus and S. pneumoniae (in words)": "excellent activity"},
      {"smiles": "COc1ccc2ccc(=O)n(CCN(CCO)[C@H]3CC[C@H]4[C@@H](C3)OC(=O)N4c3ccc4c(n3)NC(=O)CO4)c2n1", "note": "[Compound 7, 1-(2-{[(3aS,6S,7aR)-2-oxo-3-{3-oxo-2H,3H,4H-pyrido[3,2-b][1,4]oxazin-6-yl}-octahydro-1,3-benzoxazol-6-yl](2-hydroxyethyl)amino}ethyl)-7-methoxy-1,2-dihydro-1,8-naphthyridin-2-one]", "activity against the Gram-positive strains S. aureus and S. pneumoniae (in words)": "excellent activity"},
      {"smiles": "O=C1COc2cnc(N3C(=O)O[C@@H]4C[C@@H](NCCn5c(=O)cnc6cc(F)c(F)cc65)CC[C@@H]43)nc2N1", "note": "[Compound 65, 1-(2-{[(3aS,6S,7aR)-2-oxo-3-{7-oxo-6H,7H,8H-pyrimido[5,4-b][1,4]oxazin-2-yl}-octahydro-1,3-benzoxazol-6-yl]amino}ethyl)-6,7-difluoro-1,2-dihydroquinoxalin-2-one]", "activity against the Gram-positive strains S. aureus and S. pneumoniae (in words)": "excellent activity"},
      {"smiles": "O=C1COc2ccc(N3C(=O)O[C@@H]4C[C@@H](NCCn5c(=O)cnc6ccc(F)cc65)CC[C@@H]43)nc2N1", "note": "[Compound 26, 1-(2-{[(3aS,6S,7aR)-2-oxo-3-{3-oxo-2H,3H,4H-pyrido[3,2-b][1,4]oxazin-6-yl}-octahydro-1,3-benzoxazol-6-yl]amino}ethyl)-7-fluoro-1,2-dihydroquinoxalin-2-one]", "activity against the Gram-positive strains S. aureus and S. pneumoniae (in words)": "excellent activity"},
      {"smiles": "COc1ccc2ccc(=O)n(CCCN[C@H]3CC[C@H]4[C@H](C3)OC(=O)N4c3ccc4c(n3)NC(=O)CO4)c2n1", "note": "[Compound 83, 1-(3-{[(3aS,6S,7aS)-2-oxo-3-{3-oxo-2H,3H,4H-pyrido[3,2-b][1,4]oxazin-6-yl}-octahydro-1,3-benzoxazol-6-yl]amino}propyl)-7-methoxy-1,2-dihydro-1,8-naphthyridin-2-one]", "activity against the Gram-positive strains S. aureus and S. pneumoniae (in words)": "excellent activity"},
      {"smiles": "COc1ncc2ccc(=O)n(CCN[C@H]3CC[C@H]4[C@H](C3)OC(=O)N4c3ccc4c(n3)NC(=O)CO4)c2n1", "note": "[Compound 52, (3aS,6S,7aS)-6-[(2-{2-methoxy-7-oxo-7H,8H-pyrido[2,3-d]pyrimidin-8-yl}ethyl)amino]-3-{3-oxo-2H,3H,4H-pyrido[3,2-b][1,4]oxazin-6-yl}-octahydro-1,3-benzoxazol-2-one]", "activity against the Gram-positive strains S. aureus and S. pneumoniae (in words)": "excellent activity"},
      {"smiles": "COc1ccc2ccc(=O)n(CCN[C@@H]3CC[C@@H]4[C@@H](C3)OC(=O)N4c3cc4c(nn3)OCCO4)c2n1", "note": "[Compound 49, 1-(2-{[(3aR,6R,7aR)-3-{6H,7H-[1,4]dioxino[2,3-c]pyridazin-3-yl}-2-oxo-octahydro-1,3-benzoxazol-6-yl]amino}ethyl)-7-methoxy-1,2-dihydro-1,8-naphthyridin-2-one]", "activity against the Gram-positive strains S. aureus and S. pneumoniae (in words)": "excellent activity"},
      {"smiles": "N#Cc1cnc2ccc(=O)n(CCN[C@@H]3CC[C@@H]4[C@@H](C3)OC(=O)N4c3ccc4c(n3)NC(=O)CO4)c2c1", "note": "[Compound 50, 5-(2-{[(3aR,6R,7aR)-2-oxo-3-{3-oxo-2H,3H,4H-pyrido[3,2-b][1,4]oxazin-6-yl}-octahydro-1,3-benzoxazol-6-yl]amino}ethyl)-6-oxo-5,6-dihydro-1,5-naphthyridine-3-carbonitrile]", "activity against the Gram-positive strains S. aureus and S. pneumoniae (in words)": "excellent activity"},
      {"smiles": "COc1ccc2ccc(=O)n(CCN[C@H]3CC[C@H]4[C@H](C3)OC(=O)N4c3ccc4c(n3)NC(=O)C(C)(C)O4)c2n1", "note": "[Compound 48, 1-(2-{[(3aS,6S,7aS)-3-{2,2-dimethyl-3-oxo-2H,3H,4H-pyrido[3,2-b][1,4]oxazin-6-yl}-2-oxo-octahydro-1,3-benzoxazol-6-yl]amino}ethyl)-7-methoxy-1,2-dihydro-1,8-naphthyridin-2-one]", "activity against the Gram-positive strains S. aureus and S. pneumoniae (in words)": "excellent activity"}
    ]}
  ]
}
